Measurements from paper PMC8152265, “Seconeolitsine, the Novel Inhibitor of DNA Topoisomerase I, Protects against Invasive Pneumococcal Disease Caused by Fluoroquinolone-Resistant Strains” (Antibiotics, 2021).

Experiments:
Format in all cases: in vivo, Streptococcus pneumoniae
[1] = tested on: Strain CipR57; test: PK/PD parameters against strain CipR57; conditions: over 24 h; for fT>MIC: free drug, 40 mg/kg (SCN) or 50 mg/kg (LVX); for fAUC/MIC: free fraction from protein binding 40% (SCN), 12% (LVX), 40 or 50 mg/kg
[2] = tested on: Strain CipR45; test: PK/PD parameters against strain CipR45; conditions: over 24 h; for fT>MIC: free drug, 40 mg/kg (SCN) or 50 mg/kg (LVX)
[3] = tested on: CipR45 and CipR57; test: PK/PD parameters against CipR45 and CipR57 (bounds given in text); conditions: upper bound over CipR45 and CipR57; highest dose tested

Structure (SMILES) | fT>MIC [1] [%] | fAUC/MIC [1] [h] | fT>MIC [2] [%] | fAUC/MIC ([2]; free fraction from protein binding 40% (SCN), 12% (LVX), 40 or 50 mg/kg) [h] | fAUC/MIC [3] [h]
CNCCc1cc2c(c3c1ccc1cc4c(cc13)OCO4)OCO2 [Seconeolitsine, seconeolitsine] | 0.0 | 2.3 ± 0.0 | 0.0 |  | 
C[C@H]1COc2c(N3CCN(C)CC3)c(F)cc3c(=O)c(C(=O)O)cn1c23 [Levofloxacin, levofloxacin] | 0.0 | 1.9 ± 0.16 | 24.2 ± 2.8 | 15.2 ± 1.3 | ≤ 15.2
